# Over roughly 33,000 sequences, “E-score (-0.5 to 0.5)” has its median near -0.015; the highest 2% begin near 0.3. Some of the results follow.
# Biological target: T1, Abf1 (UniProt P14164)
# T1 sequence: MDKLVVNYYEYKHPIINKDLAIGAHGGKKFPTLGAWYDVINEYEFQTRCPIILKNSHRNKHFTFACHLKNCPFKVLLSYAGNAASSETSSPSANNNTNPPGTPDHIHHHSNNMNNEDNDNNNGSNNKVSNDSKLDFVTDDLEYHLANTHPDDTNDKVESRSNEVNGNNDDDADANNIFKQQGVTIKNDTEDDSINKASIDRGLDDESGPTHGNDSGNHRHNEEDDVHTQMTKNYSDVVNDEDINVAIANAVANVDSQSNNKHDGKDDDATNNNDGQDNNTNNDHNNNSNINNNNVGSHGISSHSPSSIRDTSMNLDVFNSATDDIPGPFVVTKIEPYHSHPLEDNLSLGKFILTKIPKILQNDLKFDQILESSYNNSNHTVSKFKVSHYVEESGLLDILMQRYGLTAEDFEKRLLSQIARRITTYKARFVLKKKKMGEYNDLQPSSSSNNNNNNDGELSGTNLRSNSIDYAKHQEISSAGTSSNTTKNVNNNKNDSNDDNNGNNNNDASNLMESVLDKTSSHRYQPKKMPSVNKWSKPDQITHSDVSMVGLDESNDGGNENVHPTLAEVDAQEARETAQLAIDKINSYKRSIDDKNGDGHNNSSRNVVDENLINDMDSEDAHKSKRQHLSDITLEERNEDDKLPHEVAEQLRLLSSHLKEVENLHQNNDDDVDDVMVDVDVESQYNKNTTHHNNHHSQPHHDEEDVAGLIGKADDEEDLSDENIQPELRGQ
# Test: PBM E-score (8-mer binding enrichment) (E-score (-0.5 to 0.5)); higher = stronger / more preferred TF binding
# Conditions: protein concentration: 200 nM; construct: GST-full length
# How it was run: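 GST-tagged yeast TFs (full-length or DNA-binding domain) were made by PURExpress in vitro transcription/translation and applied at about 100-200 nM to universal all-10-mer Agilent arrays. The arrays were made double-stranded by primer extension, on fresh or once-stripped slides. Bound protein was detected with fluorescent anti-GST, and scans were normalised with masliner. Each ungapped eight-base word, pooled with its reverse complement, received an E-score (modified Wilcoxon-Mann-Whitney statistic) from the Universal PBM Analysis Suite.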
row,Sequence,PBM E-score
1,TGCGATAA,0.212
2,ATGTCACC,0.429
3,CGTGTCTC,0.164
4,AAGCAGAT,-0.108
5,ACGATACC,0.276
6,GTATGCAC,0.236
7,CACTTTTC,0.192
8,GATCGGCC,0.0329
9,CCGCCGCG,-0.17
10,ATCCTTTG,-0.00116
11,ACCTTTTA,0.0165
12,CCTGGATA,0.0319
13,ATGCCCGG,-0.174
14,AAAATCCT,-0.132
15,CGTCAACG,0.228
16,ACCAGCTC,-0.138
17,TCGGTAAA,0.112
18,CCTGCCGC,-0.0716
19,GATTGTGC,-0.0524
20,ACATCGCG,0.0131
21,TAAGTTAA,0.0411
22,ACTGACGA,0.305
23,AGATACTC,-0.0317
24,GAAAAATA,0.157
25,GCTGCCAC,-0.0485

row,Sequence,PBM E-score
1,AAGGACAT,0.0941
2,AGTCTCCG,-0.0466
3,GCAGTGTA,-0.0775
4,GAGTACTC,-0.117
5,ACAGGCCG,-0.00447
6,TGGTGGAA,-0.0333
7,AACACTCA,0.125
8,AGGAGCCA,-0.234
9,GTAAAAGA,0.18
10,TTCCTCAA,-0.177
11,ACAGCTGG,-0.122
12,CGAAGCAG,-0.15
13,AACCAGTG,-0.195
14,ACCAAAGT,0.0181
15,GAACCTTC,-0.153
16,GAAAGCGC,-0.0208
17,CACTGCAG,0.00434
18,CTAATTTA,0.168
19,CCTAGACG,0.213
20,ATGGCGTG,0.0483
21,AGATTCGC,-0.00717
22,ATACCACG,0.049
23,CACTTTAA,0.0944
24,CGTGTACA,0.261
25,GCCCCCCC,-0.447

row,Sequence,PBM E-score
1,AATTAGCT,0.00544
2,GATATTCA,0.177
3,CTGCGGAA,-0.207
4,AGCGCGAA,0.0206
5,ACGGATAT,0.228
6,CCAGGTCC,-0.162
7,TATTGACA,-0.0437
8,AGGGTTCG,-0.183
9,TCCTTGAA,0.022
10,AACACCGT,0.0172
11,GACCAGCA,-0.0777
12,ACAGCCCT,-0.12
13,CGACATCG,0.301
14,GTTATCTA,0.0953
15,CTCTCACC,-0.0855
16,CAACGTAC,0.267
17,AAGGCTTG,-0.136
18,CCCTCTTA,-0.00426
19,ACGCATGC,0.0823
20,CCAGCGGA,-0.185
21,ACTAAATA,0.268
22,CGATAGCG,0.0434
23,AACATAGC,-0.162
24,GCATAGGC,-0.255
25,CACATCCA,0.0403

row,Sequence,PBM E-score
1,AGGGGTAT,-0.179
2,CTATAATA,-0.0104
3,CAAGCATA,0.0834
4,GTCGCGGA,0.159
5,CTCGGAAA,-0.0502
6,CTTGCAGA,-0.0602
7,GGATGTTA,-0.0382
8,ACGCCGTA,0.245
9,CCAAATAC,0.00396
10,ACAACACT,0.147
11,CATTTAGG,-0.0739
12,AGCTGGTG,-0.174
13,CCTTAAAG,-0.00146
14,CATGGCGG,-0.0941
15,ATACAGAA,0.103
16,CCGTGGCG,0.164
17,CGCGGCTC,-0.186
18,CCGTTCGA,0.209
19,CTGCAGAA,0.0288
20,GATTATGA,0.156
21,CAAGTTCA,-0.117
22,GCTTCGGA,0.0157
23,AACCACGA,0.0664
24,CAGATGCA,-0.256
25,AGAAACAA,0.0151

row,Sequence,PBM E-score
1,CTTGCAAA,0.115
2,GAATTGTA,0.114
3,CATAACCC,-0.0577
4,ACCGGTTA,-0.0599
5,CCCGCCGA,-0.121
6,ACATTAAG,0.12
7,ATAATCGC,0.107
8,GGAGGCTA,-0.164
9,CCCAAGGC,-0.264
10,GTTGGGTA,-0.103
11,CCAAAAAG,-0.0139
12,GTGTTATA,0.174
13,AATTTTAC,0.127
14,ACCACGGG,-0.0851
15,GCGAGCGA,0.143
16,ACCCTCAG,0.0149
17,AATGTGGC,-0.038
18,AAGATACT,0.068
19,ATCGCATG,0.0504
20,ATAATGTG,0.08
21,AATAGATT,0.0836
22,CACCCTAG,0.0352
23,CGATTAAG,0.166
24,ACGACAGC,0.24
25,CGTATAAG,0.349

row,Sequence,PBM E-score
1,ATCTGACG,0.091
2,GAAAACAC,0.142
3,AGTTAATC,0.161
4,AGTCAACG,-0.149
5,ATGGAACG,0.051
6,CTTAGTAC,0.128
7,AGAGGTGA,0.153
8,ATCCAGAC,-0.194
9,GCACCAAA,0.0446
10,ACAGTTAA,-0.0458
11,ACGCCCTA,0.0717
12,AGCCGTGA,0.292
13,AGTTGCGG,-0.147
14,ATTAGGAC,0.0986
15,TCTTACAA,0.00801
16,GTTAATCA,0.235
17,ACGGGAGG,-0.0941
18,CAACGAAA,0.23
19,CGGCCCTA,-0.137
20,GTAAACTA,0.16
21,GCCGCTCA,-0.154
22,GCACCAGC,-0.35
23,CCAAGTTC,-0.266
24,GTGTTCCA,-0.00174
25,AACACTTC,0.0653

row,Sequence,PBM E-score
1,GCCCGGGA,-0.176
2,CCCCGCGC,-0.205
3,CTATGGGC,-0.0463
4,ATCGGCAC,0.0131
5,ACCACCCT,-0.149
6,AAATGGAG,0.0525
7,GGCCTTCA,-0.107
8,CACGTATG,0.00529
9,CGGAATCA,0.00134
10,CTCCCACA,-0.224
11,GCTTGTCA,0.294
12,ACACGGGA,0.19
13,CAATTTGG,0.00722
14,AACCGACA,0.162
15,CGTACCGC,0.183
16,AATATACG,0.189
17,CGTGTCGA,0.0515
18,GCAATAAA,0.139
19,AGCCTACC,-0.353
20,CAGGCAAC,-0.027
21,CATAACTC,-0.00554
22,TACTCCCA,0.0371

# A few values from the results shown.
# CTATGGGC – PBM E-score: -0.0463
# CTCCCACA – PBM E-score: -0.224
# AATATACG – PBM E-score: 0.189
# CAATTTGG – PBM E-score: 0.00722
# CGGAATCA – PBM E-score: 0.00134
# CGTGTCGA – PBM E-score: 0.0515

# Pulled one by one from the entries so far (five):
row,Sequence,PBM E-score
22,TACTCCCA,0.0371
10,CTCCCACA,-0.224
17,CGTGTCGA,0.0515
3,CTATGGGC,-0.0463
7,GGCCTTCA,-0.107
